Columns and labels:
[1] = target: T1, hOATP2B1 (Homo sapiens, UniProt O94956); assay: Cellular uptake assay: intracellular accumulation in HEK293-hOATP2B1 vs HEK293-MOCK cells (HPLC-MS/MS); settings: 0.25 μM, HBSS pH7.4, 37 °C, 20 min
T1 sequence (O94956 1-709): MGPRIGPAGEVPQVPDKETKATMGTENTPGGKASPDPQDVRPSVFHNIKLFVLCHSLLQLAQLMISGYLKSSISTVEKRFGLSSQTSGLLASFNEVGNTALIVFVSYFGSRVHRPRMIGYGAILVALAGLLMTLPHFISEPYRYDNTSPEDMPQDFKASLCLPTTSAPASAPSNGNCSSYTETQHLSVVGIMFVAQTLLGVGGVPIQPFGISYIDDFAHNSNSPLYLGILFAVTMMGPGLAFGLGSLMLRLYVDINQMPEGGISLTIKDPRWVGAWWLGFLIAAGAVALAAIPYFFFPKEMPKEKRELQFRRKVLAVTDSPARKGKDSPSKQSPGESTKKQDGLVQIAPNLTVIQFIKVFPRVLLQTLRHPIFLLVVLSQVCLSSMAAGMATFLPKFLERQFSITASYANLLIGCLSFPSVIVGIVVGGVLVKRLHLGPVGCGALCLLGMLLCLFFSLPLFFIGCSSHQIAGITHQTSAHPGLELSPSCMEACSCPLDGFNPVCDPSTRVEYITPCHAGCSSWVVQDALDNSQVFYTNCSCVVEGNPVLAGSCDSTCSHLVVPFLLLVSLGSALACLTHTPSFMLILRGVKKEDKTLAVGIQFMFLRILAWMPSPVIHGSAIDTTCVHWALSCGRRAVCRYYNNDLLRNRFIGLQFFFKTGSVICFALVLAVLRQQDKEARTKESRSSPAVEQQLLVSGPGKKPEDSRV

[2] = target: T1, hOATP2B1; assay: pH dependent uptake of morphine and M6G in HEK293-hOATP2B1 cells; settings: 0.25 μM, HBSS, 37 °C, 20 min

SMILES	increase of intracellular accumulation in HEK293-hOATP2B1 compared to HEK293-MOCK [1]	intracellular accumulation ([1]; HEK293-MOCK cells) [nM]	intracellular accumulation ([1]; HEK293-hOATP2B1 cells) [nM]	concentration in HEK293-hOATP2B1 cells at pH6.0 relative to pH7.4 [2] [fold]
CN1CC[C@]23c4c5ccc(O)c4O[C@H]2[C@@H](O)C=C[C@H]3[C@H]1C5 [morphine]	more than 2 fold	0.34	0.90	2.62
CC(C)c1c(C(=O)Nc2ccccc2)c(-c2ccccc2)c(-c2ccc(F)cc2)n1CC[C@@H](O)C[C@@H](O)CC(=O)O [atorvastatin]	2 to 3 fold			

From publication PMC5024137 (Scientific Reports, 2016)
